Over roughly 33,000 sequences, “E-score (-0.5 to 0.5)” has its median near -0.0059; the highest 2% begin near 0.26. The list shows a part of the results.
Biological target: T1, Cin5 (UniProt P40917)
T1 sequence: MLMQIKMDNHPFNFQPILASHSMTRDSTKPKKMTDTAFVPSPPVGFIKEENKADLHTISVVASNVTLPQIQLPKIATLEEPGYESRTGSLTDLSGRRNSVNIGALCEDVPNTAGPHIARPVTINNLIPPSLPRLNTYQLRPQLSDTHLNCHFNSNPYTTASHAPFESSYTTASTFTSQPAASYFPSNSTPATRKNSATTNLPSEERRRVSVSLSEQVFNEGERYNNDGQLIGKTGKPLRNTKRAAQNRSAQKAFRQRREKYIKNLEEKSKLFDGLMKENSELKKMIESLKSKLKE
Test: PBM E-score (8-mer binding enrichment) (E-score (-0.5 to 0.5)); higher = stronger / more preferred TF binding
Details: protein concentration: 100 nM; construct: GST-full length
Procedure, shortened: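 Masliner-normalised scans of fluorescent anti-GST signal were the basis for scoring. That signal came from GST-tagged yeast transcription factors applied at about 100-200 nM to double-stranded universal all-10-mer Agilent arrays on fresh or once-stripped slides. Each ungapped eight-base word, pooled with its reverse complement, received an E-score from the Universal PBM Analysis Suite.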

Sequence	PBM E-score
CAGCCCAA	0.0141
TAGCTCCA	-0.0567
CGAACCGA	0.0339
AGTGGCGG	-0.0216
TCGTGCCA	-0.134
CATTCTTC	0.16
TACCAAAA	0.0202
GTAACGAC	-0.058
CACTAGCA	-0.0696
ATGGGCTG	-0.0265
AGATACGA	0.211
TCGTCACA	0.0131
AGAAAAAC	-0.076
CTCTTAGA	-0.0511
CCGGTCCC	-0.0708
ATTACGAG	0.299
AGATTATG	0.248
AATTAGCC	-0.0635
AGCGTGGG	-0.184
CACATGCG	-0.0249
ACATCATA	0.258
CCATCCCC	-0.141
CGGGATCC	0.144
CTTTACTA	0.252
CCGTGAAA	0.0835

Some values from the list.
PBM E-score, AGTGGCGG is entered as -0.0216
PBM E-score, CAGCCCAA is entered as 0.0141
PBM E-score, CCATCCCC is entered as -0.141

Retrieved one by one from the entries so far:
Sequence	PBM E-score
CAGCCCAA	0.0141
CGGGATCC	0.144
CACATGCG	-0.0249
CACTAGCA	-0.0696

Continuation:

Sequence	PBM E-score
GCCCCTGA	-0.0843
AACTTGCA	0.0959
ACGGTTTG	-0.161
ATAAATAA	0.321
CAATGGAA	0.0943
GTGAGCCA	0.0352
CCTCTTCA	-0.254
ATAAGTAA	0.198
GTACCTCA	0.0535
CTAGGCAC	-0.22
GCCTGATA	-0.0274
AAAGGAAG	-0.167
CTCGCGAA	-0.0923
ACATACCG	-0.0577
AGCATCAT	0.137
CAAATTTC	0.11
TACGATAA	0.22
AACTCGCT	0.149
AGCTCGCA	0.0516
GACCACTC	-0.133
GAGAGCCC	-0.386
ACAGTCTG	-0.14
GAGCCAGA	-0.0535
TCGCCCGA	-0.0633
CGGATAGC	0.0584

Sequence	PBM E-score
CCGTCAAA	-0.133
GATTTGAA	0.121
ATTAGAGC	0.105
ACATCGAT	0.0571
TACTCAGA	0.154
ACTAAGGA	0.0227
CTGACTGC	-0.148
GTGGAGGA	-0.0744
GACACGCC	-0.00175
AGCTGGTA	-0.0911
CTCAGTCA	-0.031
GGAAATTA	0.256
ACGGGCGG	-0.214
TCAGCAAA	0.146
ATTTCCTA	0.0639
AAGTTTCT	0.109
ATCCGTCA	0.119
ACGCCTAT	-0.0453
CAAGCCGG	0.0852
TCGACTCA	0.0883
AAGCTTTC	0.122
CGCGACCG	-0.0437
GAGAGCGC	-0.122
GCAGTCTA	-0.0135
GCATCGTA	0.0386

Sequence	PBM E-score
AGTTCGGG	0.168
ATCTGCAG	0.00093
CGCAGTAA	0.0778
GCAGCTAA	-0.147
GAAATTAC	0.204
CACTGTTC	-0.108
TAAGTTCA	0.0195
CTAGCAGC	-0.0739
GCGAACGC	-0.171
CAGCTTGC	-0.0574
ATGTTACA	0.133
CCAGATTA	0.225
ACCCCTTG	-0.237
ACTAGTTC	0.0406
ATATACAG	0.219
GGTTAGTA	0.118
AAAAGTAC	0.181
ACACGGAA	0.107
CAGAGCCA	-0.254
ATAGATGA	0.0621
ATCCTTAC	0.0268
AGGCTTTA	-0.141
CGGGCAAA	-0.0295
ACCCGTGG	-0.206
ATCGATAA	0.132

Sequence	PBM E-score
CAATATGG	0.0326
AACCTACG	-0.0341
GTTTTGGA	-0.163
CTCGACAA	-0.065
AGGTACCT	-0.37
CGTTCGTA	0.243
ACGTACCG	0.017
GAATGATC	-0.046
CCTGAATC	-0.006
TATGGAGA	0.0174
ACCATACA	0.029
GCTAAGAA	-0.152
CGTAAGAG	0.079
GTTGTTAA	0.284
CTTAGCAC	-0.0693
GCTATAAA	0.00468
GACGAAAA	0.211
ACTGCTAC	0.00822
AGTTAGTA	0.106
AGGATCTG	-0.183
CTTAGCCC	-0.0614
AGCCGGCT	-0.174
AGCATCGG	-0.13
GGTTTCCA	-0.121
CGTTAGCA	0.143

Sequence	PBM E-score
GACTTCGC	0.135
CTGTTTGA	0.114
CGCTGTTC	-0.126
AATGTAGG	-0.201
AGTCCCTG	-0.224
CCCTAGAC	-0.112
AGCTGTGG	-0.15
ACCGAACG	0.0281
GCGCGAAA	0.191
GTAAAAAC	0.129
GCTCGGAA	-0.00118
GCTCCCTA	-0.326
CCTAAACG	-0.173
AGTTTTAA	0.141
AGGCTACG	-0.35
ATGGATCA	0.0362
AAGCCTGG	-0.072
CCTGTGGC	-0.187
CAAATCCC	-0.00823
CTGTCCGA	-0.0945
CATATCCA	-0.127
CACAAGAC	-0.0901
AACAGGCT	-0.073
AAGAGTAT	-0.16
AGCACAGC	0.0397

Sequence	PBM E-score
AGGCCGAC	-0.143
TTGGCCAA	-0.0579
GCGCTAGA	0.049
TAACTCTA	0.0799
CAGAACAC	0.00678
TGGCTTAA	0.137
AAGGTTCA	-0.0235
TCGCTAGA	-0.12
ATTGCCAG	0.102
AATACCAC	0.123
AAATTTTG	-0.0524
ACTGTCCT	-0.0109
AATTTCGG	0.0592
AAGTCAGC	0.293
AGCACTGC	-0.0786
GGTACCAC	-0.221
AGACTCGA	-0.143
ATTTGGCG	-0.0495
CTCTGGAC	0.0765
CTCGGCTA	-0.00063
GCATAAGA	0.0468
ATAGTACC	0.00218

Source: the supplement of paper PMC3334620
